The text below walks through data of US6592885B2, “Method for making infection-resistant fabricated textile articles for biomedical applications” (priority 2001, dated 2003).

Each structure is given as a SMILES string.

The subject of this assay is S. aureus. The assay is described as follows: MIC/MBC of native and heated Cipro/Oflox (heat stability). It is filed as cell-based. The following applies: Staphylococcus aureus, 10^6 S. aureus/ml, TSB, n=6. The protocol:
An inoculum of S. aureus was diluted to obtain a bacterial concentration of 10^6 S. aureus/ml. […] V. Mosby, St. Louis, 1986]. Antibiotic concentrations in the assay were […].

On to `O=C(O)c1cn(C2CC2)c2cc(N3CCNCC3)c(F)cc2c1=O` [Cipro, Ciprofloxacin], for which the MIC came out at 2.3 µM (antibiotic heated to 135° C. for 1 hour (dye bath conditions), 24 hours) and 2.3 µM (native antibiotic, turbidity after 24 hours).
